# In the supplement of paper PMC8728848:
# Some of the results follow.
# Assays:
# Experiment in all cases: glycan array binding signal (z-score within array); higher = stronger binding
# Conditions in all cases: glycan notation: IUPAC condensed, linker removed
# [1] = molecular target: Fuc(a1-3)GlcNAc
# Method in brief: (§1)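 Arrays were curated from the Consortium for Functional Glycomics database, 3228 in total, and kept only where the protein sequence was available. Binding is expressed as a within-array Z-score. This score was averaged across arrays of the same protein sequence at different concentrations or buffers and across linkers, and negative values can be read as non-binding.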
# [2] = molecular target: Fuc(a1-3)[Gal(b1-4)]Glc6S
# Method in brief: as §1
# [3] = molecular target: Fuc(a1-3)[Gal(b1-4)]GlcNAc
# Method in brief: as §1
# [4] = molecular target: Fuc(a1-3)[Gal(b1-4)]GlcNAc(b1-2)Man
# Method in brief: as §1
# [5] = molecular target: Fuc(a1-3)[Gal(b1-4)]GlcNAc(b1-2)Man(a1-3)[Fuc(a1-3)[Gal(b1-4)]GlcNAc(b1-2)Man(a1-6)]Man(b1-4)GlcNAc(b1-4)GlcNAc
# Method in brief: as §1
# [6] = molecular target: Fuc(a1-3)[Gal(b1-4)]GlcNAc(b1-2)Man(a1-3)[Fuc(a1-3)[Gal(b1-4)]GlcNAc(b1-2)Man(a1-6)]Man(b1-4)GlcNAc(b1-4)[Fuc(a1-6)]GlcNAc
# Method in brief: as §1
# [7] = molecular target: Fuc(a1-3)[Gal(b1-4)]GlcNAc(b1-3)Gal(b1-3)[Fuc(a1-4)]GlcNAc
# Method in brief: as §1
# [8] = molecular target: Fuc(a1-3)[Gal(b1-4)]GlcNAc(b1-3)Gal(b1-4)[Fuc(a1-3)]GlcNAc
# Method in brief: as §1
# [9] = molecular target: Fuc(a1-3)[Gal(b1-4)]GlcNAc(b1-3)Gal(b1-4)[Fuc(a1-3)]GlcNAc(b1-3)Gal(b1-4)[Fuc(a1-3)]GlcNAc
# Method in brief: as §1
# [10] = molecular target: Fuc(a1-3)[Gal(b1-4)]GlcNAc(b1-3)GalNAc
# Method in brief: as §1
# [11] = molecular target: Fuc(a1-3)[Gal(b1-4)]GlcNAc(b1-6)GalNAc
# Method in brief: as §1
# [12] = molecular target: Fuc(a1-3)[Gal(b1-4)]GlcNAc(b1-6)[Gal(b1-3)GlcNAc(b1-3)]Gal(b1-4)Glc
# Method in brief: as §1
# [13] = molecular target: Fuc(a1-3)[Gal(b1-4)]GlcNAc6S
# Method in brief: as §1
# [14] = molecular target: Fuc(a1-3)[Gal3S(b1-4)]Glc
# Method in brief: as §1
# [15] = molecular target: Fuc(a1-3)[Gal3S(b1-4)]GlcNAc
# Method in brief: as §1
# [16] = molecular target: Fuc(a1-3)[Gal3S(b1-4)]GlcNAc6S
# Method in brief: as §1
# [17] = molecular target: Fuc(a1-3)[GalNAc(b1-4)]GlcNAc
# Method in brief: as §1
# [18] = molecular target: Fuc(a1-3)[GalNAc(b1-4)]GlcNAc6S
# Method in brief: as §1
# [19] = molecular target: Fuc(a1-4)GlcNAc
# Method in brief: as §1
# [20] = molecular target: Fuc(b1-3)GlcNAc
# Method in brief: as §1
# [21] = molecular target: Gal(a1-2)Gal
# Method in brief: as §1
# [22] = molecular target: Gal(a1-3)Gal
# Method in brief: as §1
# [23] = molecular target: Gal(a1-3)Gal(b1-3)GlcNAc
# Method in brief: as §1
# [24] = molecular target: Gal(a1-3)Gal(b1-3)GlcNAc(b1-2)Man
# Method in brief: as §1
# [25] = molecular target: Gal(a1-3)Gal(b1-3)GlcNAc(b1-2)Man(a1-3)[Gal(a1-3)Gal(b1-3)GlcNAc(b1-2)Man(a1-6)]Man(b1-4)GlcNAc(b1-4)GlcNAc
# Method in brief: as §1
# [26] = molecular target: Gal(a1-3)Gal(b1-3)GlcNAc(b1-3)GalNAc
# Method in brief: as §1
# [27] = molecular target: Gal(a1-3)Gal(b1-3)GlcNAc(b1-6)GalNAc
# Method in brief: as §1
# [28] = molecular target: Gal(a1-3)Gal(b1-3)[Fuc(a1-4)]GlcNAc(b1-2)Man(a1-3)[Gal(a1-3)Gal(b1-3)[Fuc(a1-4)]GlcNAc(b1-2)Man(a1-6)]Man(b1-4)GlcNAc(b1-4)GlcNAc
# Method in brief: as §1
# [29] = molecular target: Gal(a1-3)Gal(b1-4)Glc
# Method in brief: as §1
# [30] = molecular target: Gal(a1-3)Gal(b1-4)GlcNAc
# Method in brief: as §1
# [31] = molecular target: Gal(a1-3)Gal(b1-4)GlcNAc(b1-2)Man
# Method in brief: as §1
# [32] = molecular target: Gal(a1-3)Gal(b1-4)GlcNAc(b1-2)Man(a1-3)[Gal(a1-3)Gal(b1-4)GlcNAc(b1-2)Man(a1-6)]Man(b1-4)GlcNAc(b1-4)GlcNAc
# Method in brief: as §1
# [33] = molecular target: Gal(a1-3)Gal(b1-4)GlcNAc(b1-3)GalNAc
# Method in brief: as §1
# [34] = molecular target: Gal(a1-3)Gal(b1-4)GlcNAc(b1-6)GalNAc
# Method in brief: as §1
# [35] = molecular target: Gal(a1-3)Gal(b1-4)[Fuc(a1-3)]GlcNAc
# Method in brief: as §1
# [36] = molecular target: Gal(a1-3)Gal(b1-4)[Fuc(a1-3)]GlcNAc(b1-2)Man(a1-3)[Gal(a1-3)Gal(b1-4)[Fuc(a1-3)]GlcNAc(b1-2)Man(a1-6)]Man(b1-4)GlcNAc(b1-4)GlcNAc
# Method in brief: as §1
# [37] = molecular target: Gal(a1-3)GalNAc
# Method in brief: as §1
# [38] = molecular target: Gal(a1-3)[Gal(a1-4)]Gal(b1-4)GlcNAc
# Method in brief: as §1
# [39] = molecular target: Gal(a1-4)Gal(b1-3)GlcNAc(b1-2)Man(a1-3)[Gal(a1-4)Gal(b1-3)GlcNAc(b1-2)Man(a1-6)]Man(b1-4)GlcNAc(b1-4)GlcNAc
# Method in brief: as §1
# [40] = molecular target: Gal(a1-4)Gal(b1-4)Glc
# Method in brief: as §1
# [41] = molecular target: Gal(a1-4)Gal(b1-4)GlcNAc
# Method in brief: as §1
# [42] = molecular target: Gal(a1-4)Gal(b1-4)GlcNAc(b1-2)Man(a1-3)[Gal(a1-4)Gal(b1-4)GlcNAc(b1-2)Man(a1-6)]Man(b1-4)GlcNAc(b1-4)GlcNAc
# Method in brief: as §1
# [43] = molecular target: Gal(a1-4)Gal(b1-4)GlcNAc(b1-3)Gal(b1-4)Glc
# Method in brief: as §1
# [44] = molecular target: Gal(a1-4)GlcNAc
# Method in brief: as §1
# [45] = molecular target: Gal(a1-6)Glc
# Method in brief: as §1
binder,measurement,setting,value
"MXA PilAct-eGFP (Myxococcus xanthus), Q59589 (protein) MRVSRFNPRNRGFTLIELMIVVAIIGILAAIAIPNFIKFQARSKQSEAKTNLKALYTAQKSFFSEKDRYSDFANEIGFAPERGNRYGYRVSAAAGDCEVRNAADLPVPAAGVPCISNDSFRFGANSAIDDPTPVVARFVPQGAAGWNTTLGVQPTIADCPNCNFFAGARGNADNEATFDDWVIAGFEGSGQVGPCSEAGNVASGTPYNTRNDVACDGAAQ",glycan array binding signal (z-score),[1],0.615
same,glycan array binding signal (z-score),[2],-0.344
same,glycan array binding signal (z-score),[3],0.393
same,glycan array binding signal (z-score),[4],0.5
same,glycan array binding signal (z-score),[5],-0.131
same,glycan array binding signal (z-score),[6],-0.632
same,glycan array binding signal (z-score),[7],0.249
same,glycan array binding signal (z-score),[8],0.796
same,glycan array binding signal (z-score),[9],-0.942
same,glycan array binding signal (z-score),[10],-1.2
same,glycan array binding signal (z-score),[11],-0.084
same,glycan array binding signal (z-score),[12],-0.768
same,glycan array binding signal (z-score),[13],2
same,glycan array binding signal (z-score),[14],-1.11
same,glycan array binding signal (z-score),[15],-0.591
same,glycan array binding signal (z-score),[16],0.123
same,glycan array binding signal (z-score),[17],-1.22
same,glycan array binding signal (z-score),[18],-0.844
same,glycan array binding signal (z-score),[19],-0.393
same,glycan array binding signal (z-score),[20],0.03
same,glycan array binding signal (z-score),[21],-0.693
same,glycan array binding signal (z-score),[22],-1.65
same,glycan array binding signal (z-score),[23],-1.1
same,glycan array binding signal (z-score),[24],0.273
same,glycan array binding signal (z-score),[25],-0.827
same,glycan array binding signal (z-score),[26],0.883
same,glycan array binding signal (z-score),[27],-0.303
same,glycan array binding signal (z-score),[28],2.07
same,glycan array binding signal (z-score),[29],0.542
same,glycan array binding signal (z-score),[30],0.619
same,glycan array binding signal (z-score),[31],1.01
same,glycan array binding signal (z-score),[32],1.26
same,glycan array binding signal (z-score),[33],-1.13
same,glycan array binding signal (z-score),[34],-0.61
same,glycan array binding signal (z-score),[35],0.279
same,glycan array binding signal (z-score),[36],0.257
same,glycan array binding signal (z-score),[37],-0.371
same,glycan array binding signal (z-score),[38],-0.747
same,glycan array binding signal (z-score),[39],1.33
same,glycan array binding signal (z-score),[40],-0.91
same,glycan array binding signal (z-score),[41],0.09
same,glycan array binding signal (z-score),[42],-0.501
same,glycan array binding signal (z-score),[43],-0.534
same,glycan array binding signal (z-score),[44],-1.38
same,glycan array binding signal (z-score),[45],-0.016

# Rewritten bar-delimited: part of the list above
binder | measurement | setting | value
MXA PilAct-eGFP (Myxococcus xanthus), Q59589 (protein) MRVSRFNPRNRGFTLIELMIVVAIIGILAAIAIPNFIKFQARSKQSEAKTNLKALYTAQKSFFSEKDRYSDFANEIGFAPERGNRYGYRVSAAAGDCEVRNAADLPVPAAGVPCISNDSFRFGANSAIDDPTPVVARFVPQGAAGWNTTLGVQPTIADCPNCNFFAGARGNADNEATFDDWVIAGFEGSGQVGPCSEAGNVASGTPYNTRNDVACDGAAQ | glycan array binding signal (z-score) | [6] | -0.632
same | glycan array binding signal (z-score) | [7] | 0.249
same | glycan array binding signal (z-score) | [10] | -1.2
same | glycan array binding signal (z-score) | [18] | -0.844
same | glycan array binding signal (z-score) | [20] | 0.03
same | glycan array binding signal (z-score) | [36] | 0.257
same | glycan array binding signal (z-score) | [37] | -0.371
same | glycan array binding signal (z-score) | [38] | -0.747
same | glycan array binding signal (z-score) | [43] | -0.534
